From PMC7819943, “Rice protein-binding microarrays: a tool to detect cis-acting elements near promoter regions in rice”
The other results are listed elsewhere or left out.

Amino acid sequences for entries named in this document (tags omitted).
UniProt Q0JBA9, entry or part of it: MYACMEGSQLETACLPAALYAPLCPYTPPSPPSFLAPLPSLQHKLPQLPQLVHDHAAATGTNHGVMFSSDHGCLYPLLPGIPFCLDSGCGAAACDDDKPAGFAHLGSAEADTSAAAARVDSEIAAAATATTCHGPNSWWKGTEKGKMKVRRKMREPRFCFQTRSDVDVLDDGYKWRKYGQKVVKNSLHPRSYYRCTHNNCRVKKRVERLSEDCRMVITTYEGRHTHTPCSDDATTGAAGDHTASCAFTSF

What follows are sequences tested against OsWRKY34 (Oryza sativa, UniProt Q0JBA9 1-250) (assay: protein-binding microarray (RPBM); PBS, 2% BSA, 51.3 ng/ul salmon testes DNA, 50 uM zinc acetate, 200 nM TF, 25 C, 1 h; high values mean tight binding). Conditions: protein: recombinant; tags: N-terminal polyhistidine and DsRed monomer fusion (pET32a); label: CyDye5-dUTP incorporated in the synthesized complementary strand; 3' TTTTT single-stranded linker to array surface; dsDNA, one strand shown.
How it was run: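 Binding signal is defined as the fluorescence intensity of each feature in arbitrary units, read on an Axon 4000B scanner. Transcription factors with N-terminal polyhistidine and DsRed fusions came from E. coli BL21-CodonPlus and were purified on Ni–NTA. They were incubated at 200 nM for 1 h at 25 °C on a custom Agilent array that had been made double-stranded with Cy5-dUTP, with 50 µM zinc acetate present, and the array was washed.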

Row | Sequence | binding signal
1 | AGTTGGTATGTGTATGTCAAAAATAGTTTGTTTTCAGCGACGGAGTCACCTAGTGCAG | 9650 fluorescence intensity (a.u.)
2 | CAAAATAATCGTGTTGTACCTGAACTTACTTTCAACATAACGGAGTCACCTAGTGCAG | 8330 fluorescence intensity (a.u.)
3 | TGCTCCGCCTCGTCGACAACACCTGCAGCGACAGCTTCGACGGAGTCACCTAGTGCAG | 8670 fluorescence intensity (a.u.)
4 | GGAGGAGGAGCTAGGGTTTCGGATGGGAGGAGGAGGAGGGCGGAGTCACCTAGTGCAG | 8800 fluorescence intensity (a.u.)
5 | GCGGCGGGGTTCCTATCCATGGTTTTTTCGGGCTTGTCCACGGAGTCACCTAGTGCAG | 18900 fluorescence intensity (a.u.)
6 | TACTGCAACACTCATATTAATCATGGTTTAATTATTTCTCCGGAGTCACCTAGTGCAG | 9070 fluorescence intensity (a.u.)
7 | AATACTGTAATTCCTGACTTTGCATTTAGCCTATGTAATTCGGAGTCACCTAGTGCAG | 9340 fluorescence intensity (a.u.)
8 | AATTATTTTTGGTTGCTTCGTTCATTTTTTCACGGCTTATCGGAGTCACCTAGTGCAG | 14600 fluorescence intensity (a.u.)
9 | ACCTCTTCCTCGACGCCGCCGCCGACCACCACCCCGCCGGCGGAGTCACCTAGTGCAG | 8670 fluorescence intensity (a.u.)
10 | CCCCGAATACAATTTACTTGAATCGTTCTTTTACCATGTTCGGAGTCACCTAGTGCAG | 9020 fluorescence intensity (a.u.)
11 | ATGTTACTGTATGATTAAGGACCACAGATACATGTCTTTTCGGAGTCACCTAGTGCAG | 8480 fluorescence intensity (a.u.)
12 | ATCAAACCACTTCCATCTCTCAATTCTCAAGCACACACACCGGAGTCACCTAGTGCAG | 8310 fluorescence intensity (a.u.)
13 | CTACTTTTCTTTTCTTTTTTGCCTAATACTACTTTGTATACGGAGTCACCTAGTGCAG | 9720 fluorescence intensity (a.u.)
14 | ATCTACCTTTTCTCACGTCAACCCACACCTCGTCCCCGTCCGGAGTCACCTAGTGCAG | 14200 fluorescence intensity (a.u.)
15 | GGACTTGTACGTTTTGTGAACCTCATTATTTTGTTCCAAGCGGAGTCACCTAGTGCAG | 9440 fluorescence intensity (a.u.)
16 | GCGAGGTTGGGGACGGTAGGGAGGACGATGGGGAAGGACTCGGAGTCACCTAGTGCAG | 8340 fluorescence intensity (a.u.)
17 | GGGTTTTATAGCTTTTTTAACGTACATCTTTTTTTTCAAACGGAGTCACCTAGTGCAG | 9740 fluorescence intensity (a.u.)
18 | CCATGTCTCCATGTTCTGTGCCTCTGAGTTCTGAAGCTTGCGGAGTCACCTAGTGCAG | 9340 fluorescence intensity (a.u.)
19 | CATAATATCTTCTGACTGCCACTCAAATTTTTACAAACAACGGAGTCACCTAGTGCAG | 9000 fluorescence intensity (a.u.)
20 | ATTAAAGCTACCTCCTGTGCAGCATGTATTCATAGCCGTCCGGAGTCACCTAGTGCAG | 9440 fluorescence intensity (a.u.)
21 | TCAACGTGGCATTCATTTTGTACTGCGCCTCTCCGGTTCGCGGAGTCACCTAGTGCAG | 9660 fluorescence intensity (a.u.)
22 | GATTGTCATACTATACTGCTTAAAAAATTGTTCAGCTAAACGGAGTCACCTAGTGCAG | 8180 fluorescence intensity (a.u.)
23 | CAGCGTCTGATTTTTCTCTACCCCGCCGAGCATTTTCGATCGGAGTCACCTAGTGCAG | 9260 fluorescence intensity (a.u.)
24 | TTTTATTCTTTTAGGGGTCCCACAGTTATTTTTTTTCTTTCGGAGTCACCTAGTGCAG | 9750 fluorescence intensity (a.u.)
25 | GTTTTGCACCTTATTTGACATGTATGCACTGTTGTATATTCGGAGTCACCTAGTGCAG | 11100 fluorescence intensity (a.u.)
26 | CAGCAACTCCTATCCACTAGCAGTCCAATTAATTTTCTCTCGGAGTCACCTAGTGCAG | 8900 fluorescence intensity (a.u.)
27 | TTTGTATGCCGTAGTTCCAGTGGTTATTATCACTTCCCTGCGGAGTCACCTAGTGCAG | 8100 fluorescence intensity (a.u.)

Row | Sequence | binding signal
28 | TGCATCATGGTGGGTTTTTCTTTTTTTGGAGTTGGCAGTACGGAGTCACCTAGTGCAG | 9390 fluorescence intensity (a.u.)
29 | CTTTCGCAAATAGGGTTTTTAAGAGATAGTTTTCCCGCTACGGAGTCACCTAGTGCAG | 8670 fluorescence intensity (a.u.)
30 | ACTATAGTACATTGCAACGATTATTTTCTTTTATTTTTCGCGGAGTCACCTAGTGCAG | 8360 fluorescence intensity (a.u.)
31 | TCCTGACGCCTTCTTGCCTTGCACTTCCGCTCCGTCCATGCGGAGTCACCTAGTGCAG | 9410 fluorescence intensity (a.u.)
32 | TTCTAGTTACTTCGTCTCCTTACACCTCTTGCAGAAAACTCGGAGTCACCTAGTGCAG | 8390 fluorescence intensity (a.u.)
33 | GGTTCTGCTTGGCGCATATGTTCTGCATGAATACAATACGCGGAGTCACCTAGTGCAG | 8580 fluorescence intensity (a.u.)
34 | GAATGGTCAAACACGTACTAAAAAAGTCAACGGTGTCAAACGGAGTCACCTAGTGCAG | 17500 fluorescence intensity (a.u.)
35 | ATAACATCTGCTGCATTCATTACCTATACTTTGTAGATACCGGAGTCACCTAGTGCAG | 13400 fluorescence intensity (a.u.)
36 | GGGAAACCAGGCTATCCTCTTGGTCACTCTGCACCAATTCCGGAGTCACCTAGTGCAG | 10500 fluorescence intensity (a.u.)
37 | TGTTTTGACTTTTGACCAATCCAATCCAAACATTAGTTCGCGGAGTCACCTAGTGCAG | 9670 fluorescence intensity (a.u.)
38 | CGGGGTTAATTTCAGTTGGTTTTTACTGACGACGTGCTACCGGAGTCACCTAGTGCAG | 8870 fluorescence intensity (a.u.)
39 | TACTTACCCCTATCTTCATCATCGTCATCTGTATAACAAACGGAGTCACCTAGTGCAG | 9690 fluorescence intensity (a.u.)
40 | ATGGTGGGTCTTTTGCTTCTATCTTCTTCTATGCATGAAACGGAGTCACCTAGTGCAG | 10400 fluorescence intensity (a.u.)
41 | TGTTCTACTTGGCTGTCTCATACTTTTTTTATTTCTCTCTCGGAGTCACCTAGTGCAG | 11200 fluorescence intensity (a.u.)
42 | CTCGCTAGTCGCCGGTTGTTTGCCGCCTCGGCCCGATTCCCGGAGTCACCTAGTGCAG | 8670 fluorescence intensity (a.u.)
43 | ACTTACATGCGGGCCCCACATATATATATATATAATTTTTCGGAGTCACCTAGTGCAG | 14400 fluorescence intensity (a.u.)
44 | GCTGACACACATGGGCCGTATTCTGTCCTTGGGCTTATATCGGAGTCACCTAGTGCAG | 9730 fluorescence intensity (a.u.)
45 | AGATTTGGTTTTTTAGGCCGGTTTTTCGTTTTGTCGCCCTCGGAGTCACCTAGTGCAG | 8750 fluorescence intensity (a.u.)
46 | GCTCTCTGATTCTTTATTTCTTATGAACACCGTAGAAATACGGAGTCACCTAGTGCAG | 8220 fluorescence intensity (a.u.)
47 | TCTCTCGCGTCTCGCGTCTCGACCTCCTTTCCCATTCGCTCGGAGTCACCTAGTGCAG | 10400 fluorescence intensity (a.u.)
48 | ATTTGTATTTGTTTTTTTATCCGAGCTATTCGTATTTATTCGGAGTCACCTAGTGCAG | 9980 fluorescence intensity (a.u.)
49 | CCACCTCCTGTCTCGTCGCACGCGCACGCGCACGCCCTATCGGAGTCACCTAGTGCAG | 8390 fluorescence intensity (a.u.)
50 | CCAGCCTGCTGCTCCATTCCTTTCTTTTCTTTTCTTTTCCCGGAGTCACCTAGTGCAG | 8260 fluorescence intensity (a.u.)
51 | GTGAGCTTCTGTGTTTGTTCTTTCTCGAATTATTTTTTTACGGAGTCACCTAGTGCAG | 13700 fluorescence intensity (a.u.)
52 | CCCATCCTGGCCAAGACCACACCTCGCCGTCGCCACCACCCGGAGTCACCTAGTGCAG | 10100 fluorescence intensity (a.u.)
53 | TGGGCCCTTTTCTTTGCCCTGCCCAGACTGGTTCATGTATCGGAGTCACCTAGTGCAG | 10100 fluorescence intensity (a.u.)
54 | TTTTTCTTCTTGTTTGTCGTTTTCTTGAACTTGGGGCCATCGGAGTCACCTAGTGCAG | 9550 fluorescence intensity (a.u.)

Part of the list above, with each value named.
TGTTCTACTTGGCTGTCTCATACTTTTTTTATTTCTCTCTCGGAGTCACCTAGTGCAG
  binding signal: 11200 fluorescence intensity (a.u.)
CTCGCTAGTCGCCGGTTGTTTGCCGCCTCGGCCCGATTCCCGGAGTCACCTAGTGCAG
  binding signal: 8670 fluorescence intensity (a.u.)
ACTTACATGCGGGCCCCACATATATATATATATAATTTTTCGGAGTCACCTAGTGCAG
  binding signal: 14400 fluorescence intensity (a.u.)
